PubChem BioAssay AID743121, NCATS – 2013
Shown is an unselected part of about 26,000 reagents tested. 167 of all reagents (0.63%) were called active. 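Calls are per gene from RSA p-values that are not deposited; an individual active-marked siRNA can sensitise only weakly.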 Reagents against one gene are numbered here. Not all columns of the deposit are shown.

- Aim: 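Knock-downs that sensitise breast cancer cells to camptothecin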 (primary screen)
- Cells: MDA-MB-231 cells, a human breast cancer line
- Reagent: single siRNA against human genes, 20 nM siRNA (0.8 pmol per well)
- Timing: 120 h (drug added 48 h after transfection, read 72 h later)
- Conditions: camptothecin 20 nM (about EC30) for 72 h; vehicle 0.1% DMSO in parallel plates
- Detection: 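CellTiter-Glo ATP signal, scaled to control siRNA as percent viability; sensitisation given as log2 of untreated divided by camptothecin-treated viability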
- Reading the numbers: log2 vehicle/camptothecin viability: higher = stronger sensitisation to camptothecin
- Rule for the call: 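Active genes have an RSA gene-level p-value below 0.001, computed from the ratios of their separate siRNAs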

no.	Target gene	siRNA no.	log2 vehicle/camptothecin viability	call
1	WIPF2	1	-0.161	inactive
2	WIPF2	2	0.0583	inactive
3	WIPF2	3	-0.488	inactive
4	TRIM4	1	-0.125	inactive
5	TRIM4	2	-0.246	inactive
6	TRIM4	3	0.601	inactive
7	TRIM4	4	-0.193	inactive
8	PCDHB5	1	-0.149	inactive
9	PCDHB5	2	-0.207	inactive
10	PCDHB5	3	-0.0413	inactive
11	PCDHB5	4	-0.101	inactive
12	ERP44	1	-0.287	inactive
13	ERP44	2	0.221	inactive
14	ERP44	3	-0.196	inactive
15	ERP44	4	-0.112	inactive
16	ALOX12P2	1	-0.0196	inactive
17	ALOX12P2	2	-0.315	inactive
18	ALOX12P2	3	0.78	inactive
19	TMX2	1	-0.226	inactive
20	TMX2	2	0.441	inactive
21	TMX2	3	0.398	inactive
22	DPP10	1	-0.332	inactive
23	DPP10	2	-0.0824	inactive
24	DPP10	3	-0.277	inactive
25	DPP10	4	-0.0771	inactive
26	ITGA7	1	-0.479	inactive
27	ITGA7	2	-0.421	inactive
28	ITGA7	3	-0.538	inactive
29	ITGA7	4	0.111	inactive
30	AGBL3	1	-0.117	inactive
31	AGBL3	2	-0.307	inactive
32	AGBL3	3	-0.0432	inactive
33	COMTD1	1	-0.232	inactive
34	COMTD1	2	-0.386	inactive
35	COMTD1	3	-0.0909	inactive
36	COMTD1	4	0.151	inactive
37	JAG1	1	0.0088	inactive
38	JAG1	2	-0.0331	inactive
39	JAG1	3	-0.385	inactive
40	SVIL	1	-0.356	inactive
41	SVIL	2	-0.432	inactive
42	SVIL	3	-0.189	inactive
43	SVIL	4	-0.0868	inactive
44	CLEC4F	1	-0.0474	inactive
45	CLEC4F	2	0.126	inactive
46	CLEC4F	3	0.701	inactive
47	CLEC4F	4	0.225	inactive
48	GDF6	1	-0.173	inactive
49	GDF6	2	-0.117	inactive
50	GDF6	3	0.0282	inactive
51	GDF6	4	-0.212	inactive
52	CDK14	1	0.0692	inactive
53	CDK14	2	0.0632	inactive
54	CDK14	3	-0.293	inactive
55	CDK14	4	-0.116	inactive
56	TMPRSS11B	1	-0.511	inactive
57	TMPRSS11B	2	-0.195	inactive
58	TMPRSS11B	3	-0.184	inactive
59	PCMTD2	1	0.238	inactive
60	PCMTD2	2	-0.355	inactive
61	PCMTD2	3	-0.401	inactive
62	ALPP	1	-0.229	inactive
63	OR2L3	1	-0.00423	inactive
64	OR2L3	2	0.188	inactive
65	OR2L3	3	-0.0811	inactive
66	OR2L3	4	0.0283	inactive
67	ATP2A1	1	-0.0746	inactive
68	ATP2A1	2	-0.511	inactive
69	ATP2A1	3	-0.46	inactive
70	ATP2A1	4	-0.328	inactive
71	TSKS	1	-0.228	inactive
72	TSKS	2	-0.493	inactive
73	TSKS	3	0.542	inactive
74	TSKS	4	-0.85	inactive
75	RNF121	1	-0.142	inactive
76	RNF121	2	-0.383	inactive
77	RNF121	3	-0.768	inactive
78	RNF121	4	-0.0268	inactive
79	CISH	1	0.409	inactive
80	CISH	2	-0.0765	inactive
81	CISH	3	-0.409	inactive
82	RAB14	1	-0.0818	inactive
83	RAB14	2	0.114	inactive
84	RAB14	3	0.0715	inactive
85	RAB14	4	0.158	inactive
86	ADAMTS4	1	-0.243	inactive
87	ADAMTS4	2	-0.121	inactive
88	ADAMTS4	3	-0.0762	inactive
89	ADAMTS4	4	-0.359	inactive

Records above whose target name begins with S or s:
Target gene	siRNA no.	log2 vehicle/camptothecin viability	call
SVIL	1	-0.356	inactive
SVIL	2	-0.432	inactive
SVIL	3	-0.189	inactive
SVIL	4	-0.0868	inactive
